# Assay results taken from PMC12040169 (PLOS Biology, 2025).
# The other results are listed elsewhere or left out.
# Test system: T1, CTL2-GFP (C. trachomatis L2/434/Bu, GFP-expressing)
# T1 construct: L2/434/Bu, GFP-expressing
# Set-up: species or system HeLa; Intracellular C. trachomatis growth in HeLa cells, bulk GFP fluorescence relative to DMSO
# Settings: bulk GFP, single well; 28.5 h, 10 µM; inhibitor
row,SMILES,% of control remaining
1,CCOc1ccc(S(=O)(=O)N(C)CC(=O)N2CCN(C)CC2)cc1 [CBK269953],120.619%
2,CNS(=O)(=O)c1ccc(NC(=O)c2cc(-c3cccnc3)nc3ccc(Br)cc23)cc1 [CBK267776],139.026%
3,CC(=O)Nc1ccc(C(=O)N/C(=C/c2ccccc2)C(=O)O)cc1 [CBK265353],123.78%
4,CCNC(=O)Nc1ncc(-c2ccc(OC(F)(F)F)cc2)c2cccnc12 [CBK070690],110.114%
5,O=C(O)C1CCC1C(=O)N1CCN(c2ccc(C(F)(F)F)cn2)CC1 (stereo not shown) [CBK057147],165.651%
6,Cc1cc(NS(=O)(=O)c2ccc(NC(=S)NC(=O)C(C)(C)C)cc2)no1 [CBK268877],34.8432%
7,O=S(=O)(c1ccc(F)cc1)N1CCN(c2ncnc3scc(-c4ccccc4)c23)CC1 [CBK264864],100%
8,CCNc1cccnc1N(CC)C1CCN(C(=O)c2cc3cc4c(cc3[nH]2)OCO4)CC1 [CBK016815],118.169%
9,Cc1c(N)c(=O)n2nc(C(F)(F)F)nc2n1C [CBK020172],128.36%
10,Cc1cc(-c2ccccc2)nn1C(CC(=O)O)C(=O)O (stereo not shown) [CBK263480],98.4921%
11,O=C(O)CC1(CC(=O)N2CCN(C(c3ccccc3)c3ccccc3)CC2)CCCC1 [CBK086174],121.702%
12,CN(C)CCN(Cc1ccncc1)Cc1ccc(F)cc1F [CBK283094],108.151%
13,Cc1nc(-c2ccc(Cl)cc2)sc1C(=O)N1CCCC(C(=O)O)C1 (stereo not shown) [CBK304407],135.604%
14,CCOC(=O)c1cccc(NS(=O)(=O)c2ccc(Br)cc2)c1 [CBK034346],93.1885%
15,O=C(Nc1ccccc1N1CCNCC1)c1ccoc1 [CBK029442T],156.646%
16,COc1ccc(C(NC(=O)N2CCN(C(=O)OCc3ccccc3)CC2)c2ccccc2C)cn1 (stereo not shown) [CBK081469],114.413%
17,CNC(=O)C1(Cc2ccc(-c3ccccc3)cc2)CCN(C(=O)c2ccccc2OC)CC1 [CBK285767],139.894%
18,Cc1cc(N2C(=O)c3ccc(C(=O)O)cc3C2=O)ccc1NC(=O)c1cccs1 [CBK265415],100%
19,Cc1cc(NC(=O)CC2CCCCC2)nc2c1c(=O)oc1ccccc12 [CBK291151],124.631%
20,Cc1sc2nc(SCc3cc(O)[nH]n3)nc(N)c2c1C [CBK264585],121.84%
21,N=c1n(CC(=O)O)c2ccccc2n1Cc1ccc(Cl)cc1 [CBK262897B],133.09%
22,Cc1cnc(C)c(N2CCN(C(=O)NCCSc3nncn3C)CC2)n1 [CBK306531],86.6944%
23,O=C(Nc1cc([N+](=O)[O-])ccc1O)c1ccc2c(c1)C(=O)N(Cc1cccnc1)C2=O [CBK266770],90.8784%
24,CN(C)CCn1c(=O)oc2ccc(NC(=O)C3CCCO3)cc21 (stereo not shown) [CBK304913],101.763%
25,CC(=O)N1CCC(c2c(C(=O)Nc3cccc(CN4CCCC4)c3)sc3ccccc23)C1 (stereo not shown) [CBK285892],93.5801%
26,Fc1cccc(-c2nccnc2NCCc2c[nH]c3ccccc23)c1 [CBK036861],164.703%

row,SMILES,% of control remaining
1,O=C(O)CC1S\C(=N/N=C\C=C/c2ccccc2)N(c2ccc(O)cc2)C1=O (stereo not shown) [CBK263688],125.469%
2,O=C(c1sc2ccccc2c1C1CCN(Cc2ccccc2F)C1)N1CCOCC1 (stereo not shown) [CBK286260],151.937%
3,O=C(C1CCC1)N1CCC(c2nnc3n2CCCCC3)CC1 [CBK284625],150.717%
4,N#CCCN(C(=O)NCc1ccc(F)cc1)C1CCCCC1 [CBK156372],119.85%
5,O=C(NC1CC(=O)N(CCc2ccc(F)cc2)C1)c1cn2ccsc2n1 (stereo not shown) [CBK307263],118.719%
6,OCCN1CCN(CC(O)COCC2COc3ccccc3O2)CC1 (stereo not shown) [CBK027374C],107.375%
7,CN1CCN(NC(=O)c2cc(-c3ccc(Cl)cc3)[nH]n2)CC1 [CBK116553],107.473%
8,CC(C)(O)C1CCCN(C(=O)c2coc(COc3cccc(F)c3)n2)C1 (stereo not shown) [CBK306977],174.667%
9,CC(C)Oc1ccc(CCNC(=N)NC(=N)N)cc1Cl [CBK263966],62.0552%
10,O=C(Nc1nc2c(s1)CCCC2)c1ccccc1 [CBK287326],135.39%
11,N=C1NC(=O)/C(=C/c2c(OS(=O)(=O)c3ccc(Cl)cc3)ccc3ccccc23)S1 [CBK265311],100%
12,NC(=O)CN1CC2(CCNCC2)c2ccccc21 [CBK116314],88.4333%
13,Cn1c(SCCC(=O)O)nnc1-c1cccnc1 [CBK269077],101.721%
14,Cn1ncc2c1CCCN(C(=O)COc1ccccc1F)C2 [CBK285324],162.977%
15,COc1ccc(OC)c(NC(=O)CSc2nnc(-c3ccncc3)s2)c1 [CBK269209],142.2%
16,CSc1nc(-c2ccccc2)nc(N)c1C(C)=O [CBK270762],155.765%
17,Oc1[nH]nc2c1CCC2 [CBK260873],102.622%
18,CC(=O)Nc1ccc(CCC2(NC(=O)C3CC3)CCCCC2)cn1 [CBK282290],105.489%
19,CC1CCCN(C(=O)CCn2c(C(F)F)cc3cccnc32)C1 (stereo not shown) [CBK285025],155.741%
20,CCC(C)N(C)CCNC(=O)Nc1ccc(F)c(-n2nnnc2C)c1 (stereo not shown) [CBK305176],111.308%
21,C(=N/OCc1ccccc1)/c1c[nH]c2ccccc12 [CBK168629],109.875%
22,C[C@H](Nc1cncc(-c2ccccc2CO)n1)c1ccccc1 [CBK065520],114.306%
23,COc1ccc(C(=O)N2CCC(C)CC2)cc1[N+](=O)[O-] [CBK074341],103.434%
24,NC(=O)Cn1cc(CN2CCC(c3ccccc3)C2)c2ccccc21 (stereo not shown) [CBK282803],129.71%
25,FC(F)(F)c1ccnc(Sc2cccs2)n1 [CBK115245],130.308%
26,O=C(CO/N=C\c1cccc([N+](=O)[O-])c1)Nc1ccccc1C(=O)O [CBK262051],116.916%

# Look-ups from the list:
# % of control remaining, CC(=O)Nc1ccc(CCC2(NC(=O)C3CC3)CCCCC2)cn1 [CBK282290] is entered as 105.489%
# % of control remaining, N=C1NC(=O)/C(=C/c2c(OS(=O)(=O)c3ccc(Cl)cc3)ccc3ccccc23)S1 [CBK265311] is entered as 100%
# % of control remaining, OCCN1CCN(CC(O)COCC2COc3ccccc3O2)CC1 (stereo not shown) [CBK027374C] is entered as 107.375%
